From the supplement of paper PMC12823440, “Inhibitors supercharge kinase turnover through native proteolytic circuits” (Nature, 2025)
Where a name gives a salt, the structure may show the parent alone. Some of the results follow. The calls rarely recur for the same compound in another form.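 Kinases were expressed as nanoluciferase fusions in K562 cells and luminescence was read every 4 h between 2 and 18 h as percent of control, DMSO set to 100% and a positive control to 0%. A time point counts as decreased when the signal drops significantly (2 sigma). The hit call is the authors' own, does not follow from the count of time points alone, and its rule is not shown.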

By UniProt entry, the sequences of proteins in these tests, tags left out. Where a name states a change or a piece, a line headed by the entry shows the natural chain unless it says otherwise.
UniProt Q8IWU2: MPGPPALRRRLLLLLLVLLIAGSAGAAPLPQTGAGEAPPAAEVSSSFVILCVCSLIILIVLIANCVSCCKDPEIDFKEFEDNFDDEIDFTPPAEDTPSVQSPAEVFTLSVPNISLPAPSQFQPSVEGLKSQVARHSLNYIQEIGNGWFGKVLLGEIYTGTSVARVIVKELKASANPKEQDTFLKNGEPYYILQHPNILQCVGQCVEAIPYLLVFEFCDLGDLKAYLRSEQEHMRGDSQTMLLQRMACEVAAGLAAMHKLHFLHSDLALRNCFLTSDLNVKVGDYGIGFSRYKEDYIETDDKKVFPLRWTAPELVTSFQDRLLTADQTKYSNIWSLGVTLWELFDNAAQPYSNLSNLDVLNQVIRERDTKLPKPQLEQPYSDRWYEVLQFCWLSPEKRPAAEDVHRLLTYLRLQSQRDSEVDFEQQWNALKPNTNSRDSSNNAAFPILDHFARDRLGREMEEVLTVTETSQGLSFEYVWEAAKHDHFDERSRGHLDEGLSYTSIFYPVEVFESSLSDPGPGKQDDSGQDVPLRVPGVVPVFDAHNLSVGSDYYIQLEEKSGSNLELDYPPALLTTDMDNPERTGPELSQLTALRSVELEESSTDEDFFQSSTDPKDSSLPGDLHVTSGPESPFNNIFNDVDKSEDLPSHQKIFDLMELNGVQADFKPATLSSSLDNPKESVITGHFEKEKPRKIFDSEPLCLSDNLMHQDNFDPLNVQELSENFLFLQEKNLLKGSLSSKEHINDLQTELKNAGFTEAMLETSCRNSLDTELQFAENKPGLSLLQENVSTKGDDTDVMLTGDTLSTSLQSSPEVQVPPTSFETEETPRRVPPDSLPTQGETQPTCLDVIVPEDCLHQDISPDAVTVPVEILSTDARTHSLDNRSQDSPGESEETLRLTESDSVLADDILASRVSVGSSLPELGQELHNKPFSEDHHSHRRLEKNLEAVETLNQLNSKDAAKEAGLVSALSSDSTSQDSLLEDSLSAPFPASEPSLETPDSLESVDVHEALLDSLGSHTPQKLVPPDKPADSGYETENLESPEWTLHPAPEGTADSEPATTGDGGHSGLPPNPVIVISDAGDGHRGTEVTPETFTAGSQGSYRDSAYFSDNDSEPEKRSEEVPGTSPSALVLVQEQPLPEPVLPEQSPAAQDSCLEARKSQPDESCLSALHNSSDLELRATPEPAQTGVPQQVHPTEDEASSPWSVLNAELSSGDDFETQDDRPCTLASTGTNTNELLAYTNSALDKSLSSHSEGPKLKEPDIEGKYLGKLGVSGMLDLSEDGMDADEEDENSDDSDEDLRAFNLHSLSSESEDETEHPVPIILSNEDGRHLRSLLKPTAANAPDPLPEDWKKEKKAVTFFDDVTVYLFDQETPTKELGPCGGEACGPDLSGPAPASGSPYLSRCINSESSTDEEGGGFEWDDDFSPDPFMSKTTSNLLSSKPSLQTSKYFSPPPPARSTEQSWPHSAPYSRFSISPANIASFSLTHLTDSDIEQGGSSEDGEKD
UniProt P07948: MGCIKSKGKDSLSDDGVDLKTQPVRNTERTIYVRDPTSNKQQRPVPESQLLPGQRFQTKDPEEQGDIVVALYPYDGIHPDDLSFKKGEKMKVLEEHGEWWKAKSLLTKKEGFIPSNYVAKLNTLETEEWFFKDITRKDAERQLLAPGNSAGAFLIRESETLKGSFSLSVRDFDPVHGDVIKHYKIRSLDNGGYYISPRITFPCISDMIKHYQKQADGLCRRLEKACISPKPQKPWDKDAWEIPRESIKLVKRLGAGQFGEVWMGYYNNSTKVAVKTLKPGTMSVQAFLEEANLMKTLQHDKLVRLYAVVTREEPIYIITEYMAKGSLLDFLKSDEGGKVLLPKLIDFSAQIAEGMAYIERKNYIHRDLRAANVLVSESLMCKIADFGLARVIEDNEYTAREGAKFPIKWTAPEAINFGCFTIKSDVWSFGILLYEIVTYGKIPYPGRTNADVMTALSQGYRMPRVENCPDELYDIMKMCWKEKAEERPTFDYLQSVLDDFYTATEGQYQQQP
UniProt P28482, whole entry: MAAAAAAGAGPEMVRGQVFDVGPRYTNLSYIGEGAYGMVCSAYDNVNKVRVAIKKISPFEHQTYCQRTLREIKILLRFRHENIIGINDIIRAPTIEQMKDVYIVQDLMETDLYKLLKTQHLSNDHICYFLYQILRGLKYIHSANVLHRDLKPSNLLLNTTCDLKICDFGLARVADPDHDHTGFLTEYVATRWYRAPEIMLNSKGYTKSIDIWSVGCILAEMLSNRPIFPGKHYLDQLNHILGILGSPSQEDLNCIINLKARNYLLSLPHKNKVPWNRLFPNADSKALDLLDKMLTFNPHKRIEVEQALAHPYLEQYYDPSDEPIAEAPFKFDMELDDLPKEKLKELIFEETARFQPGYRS
UniProt P49137, whole entry, looked up: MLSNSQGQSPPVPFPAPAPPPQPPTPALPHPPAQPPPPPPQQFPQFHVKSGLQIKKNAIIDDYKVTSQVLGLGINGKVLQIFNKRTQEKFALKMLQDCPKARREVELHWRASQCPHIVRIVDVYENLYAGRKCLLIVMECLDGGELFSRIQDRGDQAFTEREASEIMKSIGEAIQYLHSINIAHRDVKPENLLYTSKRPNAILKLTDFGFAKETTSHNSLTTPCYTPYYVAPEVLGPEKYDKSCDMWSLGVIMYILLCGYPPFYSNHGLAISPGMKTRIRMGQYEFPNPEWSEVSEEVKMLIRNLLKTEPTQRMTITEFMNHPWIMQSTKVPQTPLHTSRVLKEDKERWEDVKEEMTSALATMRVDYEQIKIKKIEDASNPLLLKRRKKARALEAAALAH
UniProt Q9BUB5: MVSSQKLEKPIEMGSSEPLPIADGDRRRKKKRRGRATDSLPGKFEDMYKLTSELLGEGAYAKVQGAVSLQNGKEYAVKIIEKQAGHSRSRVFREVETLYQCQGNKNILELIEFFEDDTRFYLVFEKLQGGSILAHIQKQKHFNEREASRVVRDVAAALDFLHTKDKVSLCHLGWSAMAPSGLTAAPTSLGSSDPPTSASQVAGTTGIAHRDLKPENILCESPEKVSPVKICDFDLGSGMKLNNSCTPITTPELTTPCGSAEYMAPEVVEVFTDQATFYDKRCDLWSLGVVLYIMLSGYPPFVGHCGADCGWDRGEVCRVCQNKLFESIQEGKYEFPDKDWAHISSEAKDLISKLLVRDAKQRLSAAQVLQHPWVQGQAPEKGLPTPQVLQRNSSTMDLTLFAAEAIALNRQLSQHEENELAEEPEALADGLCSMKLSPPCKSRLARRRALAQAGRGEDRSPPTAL
UniProt Q16620, whole entry, looked up: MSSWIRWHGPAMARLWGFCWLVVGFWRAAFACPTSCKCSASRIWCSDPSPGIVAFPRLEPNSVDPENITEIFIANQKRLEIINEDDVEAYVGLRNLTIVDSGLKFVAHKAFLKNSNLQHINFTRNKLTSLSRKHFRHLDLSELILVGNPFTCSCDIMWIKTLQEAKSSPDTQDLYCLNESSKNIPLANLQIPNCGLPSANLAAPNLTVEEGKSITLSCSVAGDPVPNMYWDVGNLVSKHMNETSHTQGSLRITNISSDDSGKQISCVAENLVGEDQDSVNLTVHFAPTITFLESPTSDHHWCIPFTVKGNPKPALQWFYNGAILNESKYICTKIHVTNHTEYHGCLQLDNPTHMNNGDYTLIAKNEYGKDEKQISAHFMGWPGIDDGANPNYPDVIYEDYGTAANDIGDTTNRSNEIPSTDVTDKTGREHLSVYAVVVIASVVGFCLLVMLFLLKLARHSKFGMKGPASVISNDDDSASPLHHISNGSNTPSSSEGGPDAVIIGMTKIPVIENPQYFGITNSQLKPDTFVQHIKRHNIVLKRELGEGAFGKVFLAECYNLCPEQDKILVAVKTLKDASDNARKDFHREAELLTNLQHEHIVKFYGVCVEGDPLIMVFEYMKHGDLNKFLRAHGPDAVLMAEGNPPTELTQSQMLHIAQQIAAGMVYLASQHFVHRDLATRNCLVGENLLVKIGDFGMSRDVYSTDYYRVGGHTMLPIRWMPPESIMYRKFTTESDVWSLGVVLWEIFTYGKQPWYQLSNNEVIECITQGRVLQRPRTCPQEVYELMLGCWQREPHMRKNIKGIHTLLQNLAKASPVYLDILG
UniProt Q96KB5: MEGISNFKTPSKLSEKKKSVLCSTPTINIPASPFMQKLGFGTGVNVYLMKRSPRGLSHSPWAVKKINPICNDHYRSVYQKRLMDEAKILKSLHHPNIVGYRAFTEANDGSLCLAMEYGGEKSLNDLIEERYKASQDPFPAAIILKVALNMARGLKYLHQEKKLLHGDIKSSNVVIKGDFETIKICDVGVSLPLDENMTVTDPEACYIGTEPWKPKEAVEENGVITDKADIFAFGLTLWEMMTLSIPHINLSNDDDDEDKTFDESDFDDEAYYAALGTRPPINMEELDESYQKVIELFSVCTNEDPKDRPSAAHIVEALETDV
UniProt Q15118, whole entry, looked up: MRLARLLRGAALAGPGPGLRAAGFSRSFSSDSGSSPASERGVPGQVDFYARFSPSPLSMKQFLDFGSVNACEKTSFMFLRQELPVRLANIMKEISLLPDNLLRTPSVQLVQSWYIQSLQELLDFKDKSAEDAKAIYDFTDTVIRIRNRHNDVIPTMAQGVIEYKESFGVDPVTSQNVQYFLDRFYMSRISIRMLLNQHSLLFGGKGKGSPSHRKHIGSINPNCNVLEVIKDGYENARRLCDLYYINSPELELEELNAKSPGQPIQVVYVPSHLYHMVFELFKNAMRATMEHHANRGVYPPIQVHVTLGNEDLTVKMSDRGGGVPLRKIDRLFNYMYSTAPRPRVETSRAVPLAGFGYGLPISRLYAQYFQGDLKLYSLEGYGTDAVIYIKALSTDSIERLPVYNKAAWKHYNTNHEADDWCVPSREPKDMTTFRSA
UniProt Q9UBF8: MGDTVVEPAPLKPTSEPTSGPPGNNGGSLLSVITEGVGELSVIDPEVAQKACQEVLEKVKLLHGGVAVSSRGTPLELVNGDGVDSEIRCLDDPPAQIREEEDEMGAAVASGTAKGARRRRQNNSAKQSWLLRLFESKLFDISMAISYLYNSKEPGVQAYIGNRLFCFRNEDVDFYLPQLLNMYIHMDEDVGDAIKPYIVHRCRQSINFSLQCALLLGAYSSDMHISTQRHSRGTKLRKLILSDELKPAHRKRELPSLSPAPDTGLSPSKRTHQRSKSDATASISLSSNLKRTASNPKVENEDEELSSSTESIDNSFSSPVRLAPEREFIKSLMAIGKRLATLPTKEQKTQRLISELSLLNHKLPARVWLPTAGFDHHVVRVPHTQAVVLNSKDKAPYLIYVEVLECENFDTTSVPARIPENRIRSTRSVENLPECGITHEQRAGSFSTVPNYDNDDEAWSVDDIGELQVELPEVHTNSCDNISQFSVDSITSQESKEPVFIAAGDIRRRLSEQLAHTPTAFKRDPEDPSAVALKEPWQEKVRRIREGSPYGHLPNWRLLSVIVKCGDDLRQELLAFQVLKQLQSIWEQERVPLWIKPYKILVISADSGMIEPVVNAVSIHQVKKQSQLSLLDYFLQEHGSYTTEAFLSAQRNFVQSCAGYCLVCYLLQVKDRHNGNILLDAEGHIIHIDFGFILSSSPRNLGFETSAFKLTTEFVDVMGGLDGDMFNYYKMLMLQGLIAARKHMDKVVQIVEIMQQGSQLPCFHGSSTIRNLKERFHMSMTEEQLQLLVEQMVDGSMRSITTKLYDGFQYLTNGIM
UniProt P53350, whole entry: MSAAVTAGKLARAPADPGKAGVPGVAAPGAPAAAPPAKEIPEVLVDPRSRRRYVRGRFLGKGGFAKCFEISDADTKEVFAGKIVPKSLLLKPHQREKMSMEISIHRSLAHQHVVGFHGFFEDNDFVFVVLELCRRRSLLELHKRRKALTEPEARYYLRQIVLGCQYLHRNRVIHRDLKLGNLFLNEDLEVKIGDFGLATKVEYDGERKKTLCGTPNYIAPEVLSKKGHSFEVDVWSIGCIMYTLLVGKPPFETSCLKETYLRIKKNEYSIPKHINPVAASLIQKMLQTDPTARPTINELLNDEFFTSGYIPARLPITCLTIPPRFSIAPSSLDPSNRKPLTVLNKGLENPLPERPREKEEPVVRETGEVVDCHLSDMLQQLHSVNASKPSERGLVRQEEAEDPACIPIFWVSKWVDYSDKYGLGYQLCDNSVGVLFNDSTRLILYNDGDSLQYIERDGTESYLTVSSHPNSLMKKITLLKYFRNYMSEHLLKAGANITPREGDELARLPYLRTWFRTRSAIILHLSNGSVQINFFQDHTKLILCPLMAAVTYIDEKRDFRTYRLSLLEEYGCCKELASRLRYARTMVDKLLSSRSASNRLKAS

What was measured:
Assay in all cases: number of time points (of 5) at which kinase-Nluc abundance scored as decreased, DMSO-normalised (count); higher = more persistent destabilization
Conditions in all cases: K562; 2-18 h
[1] = molecular target: LMTK2 (UniProt Q8IWU2)
[2] = molecular target: LYN (UniProt P07948)
[3] = molecular target: MAP2K1 (UniProt Q02750)
[4] = molecular target: MAP2K2 (UniProt P36507)
[5] = molecular target: MAP4K2 (UniProt Q12851)
[6] = molecular target: MAPK1 (UniProt P28482)
[7] = molecular target: MAPK4 (UniProt P31152)
[8] = molecular target: MAPKAPK2 (UniProt P49137)
[9] = molecular target: MKNK1 (UniProt Q9BUB5)
[10] = molecular target: NTRK2 (UniProt Q16620)
[11] = molecular target: NTRK3 (UniProt Q16288)
[12] = molecular target: PAK4 (UniProt O96013)
[13] = molecular target: PBK (UniProt Q96KB5)
[14] = molecular target: PDGFRB (UniProt P09619)
[15] = molecular target: PDK1 (UniProt Q15118)
[16] = molecular target: PDPK1 (UniProt O15530)
[17] = molecular target: PIK4CA (UniProt P42356)
[18] = molecular target: PIK4CB (UniProt Q9UBF8)
[19] = molecular target: PLK1 (UniProt P53350)
[20] = molecular target: PRKAA1 (UniProt Q13131)

Measured: number of time points

CC(=O)OC(C)(C)/C=C/C(=O)[C@](C)(O)[C@H]1[C@H](O)C[C@@]2(C)[C@@H]3CC=C4[C@@H](C=C(O)C(=O)C4(C)C)[C@]3(C)C(=O)C[C@]12C [Cucurbitacin E] (2.5 µM)
2: [1] | [7] | [18]
1: [9] | [20]
5: [16]
0: all other assays above

CC(=O)Oc1ccc(/C=C/c2cc(OC(C)=O)cc(OC(C)=O)c2)cc1 [Triacetylresveratrol] (10 µM)
0: all assays above

CC(=O)c1c(O)c(C)c(O)c(Cc2c(O)c3c(c(C(=O)/C=C/c4ccccc4)c2O)OC(C)(C)C=C3)c1O [Rottlerin] (2 µM)
1: [1]
0: all other assays above

CCCS(=O)(=O)Nc1ccc(F)c(-n2cc(-c3cncnc3)c3nc(N(C)C4CCN(CC)CC4)ccc32)c1F (2 µM)
0: all assays above

N#CC(C#N)=Cc1ccc(O)c(O)c1 [Tyrphostin 23] (10 µM)
0: all assays above

O=C1c2ccccc2C(=O)c2c1cccc2-c1cnn(C2CCNCC2)c1 [PDK4-IN-1 (hydrochloride)] (10 µM)
1: [2]
0: all other assays above

Cc1ccccc1-n1c(Cn2ncc3c(N)ncnc32)nc2cccc(C)c2c1=O (10 µM)
0: all assays above

C/C=C(/C)C(=O)O[C@H]1[C@@H]2[C@H](C)C(=O)O[C@@H]2C[C@@H](C)[C@@H]2C=CC(=O)[C@]21C [Brevilin A] (2.5 µM)
0: all assays above

COc1ccc(/C=C/c2cc(OC)c(OC)c(OC)c2)cc1 (2.5 µM)
2: [9] | [11] | [14] | [16]
1: [1] | [2] | [15] | [17] | [18] | [20]
not listed: [10]
0: all other assays above

CCCCNc1nc(N)c2[nH]c(=O)n(Cc3ccc(C)nc3)c2n1 (10 µM)
0: all assays above

COc1ccc2c(c1)[nH]c1c(C)nccc12 [Harmine] (10 µM)
0: all assays above

O=c1cc(O)c2ccccc2o1 [4-Hydroxycoumarin] (10 µM)
0: all assays above

O=C1C=CC[C@@H]2[C@H]3CCCN4CCC[C@@H](CN12)[C@@H]34 [Sophocarpine] (10 µM)
0: all assays above

COc1ccc2c(c1)/C(=C/c1cnc[nH]1)C(=O)N2 (2.5 µM)
not listed: [14]
0: all other assays above

C=C[C@H]1CN2CC[C@]3(C(=O)Nc4ccccc43)[C@@H]2C[C@@H]1/C(=C\OC)C(=O)OC [Corynoxeine] (2 µM)
0: all assays above

O=C1C=CC[C@@H]2[C@H]3CCCN4CCC[C@@H](CN12)[C@@H]34 [Sophocarpine (monohydrate)] (2.5 µM)
0: all assays above

O=C(O)c1nn(Cc2ccc(Cl)cc2Cl)c2ccccc12 [Lonidamine] (10 µM)
0: all assays above

CC(=O)O[C@H]1[C@H]2[C@@H](OC(=O)Cc3ccccc3)[C@@H](C)C[C@]2(OC(C)=O)C(=O)/C(C)=C/[C@@H]2[C@H](CC[C@@]13CO3)C2(C)C [Euphorbiasteroid] (10 µM)
0: all assays above
